The results in this text go back to patent US8791107B2, “N-substituted oxazinopteridines and oxazinopteridinones” (Takeda Pharmaceutical Company Limited, priority 2011, dated 2014).

Sequences of proteins named here, by UniProt entry; tags and fusion partners are left off. A change or cut given only in a name is not applied to a line headed by its entry.
UniProt O00329: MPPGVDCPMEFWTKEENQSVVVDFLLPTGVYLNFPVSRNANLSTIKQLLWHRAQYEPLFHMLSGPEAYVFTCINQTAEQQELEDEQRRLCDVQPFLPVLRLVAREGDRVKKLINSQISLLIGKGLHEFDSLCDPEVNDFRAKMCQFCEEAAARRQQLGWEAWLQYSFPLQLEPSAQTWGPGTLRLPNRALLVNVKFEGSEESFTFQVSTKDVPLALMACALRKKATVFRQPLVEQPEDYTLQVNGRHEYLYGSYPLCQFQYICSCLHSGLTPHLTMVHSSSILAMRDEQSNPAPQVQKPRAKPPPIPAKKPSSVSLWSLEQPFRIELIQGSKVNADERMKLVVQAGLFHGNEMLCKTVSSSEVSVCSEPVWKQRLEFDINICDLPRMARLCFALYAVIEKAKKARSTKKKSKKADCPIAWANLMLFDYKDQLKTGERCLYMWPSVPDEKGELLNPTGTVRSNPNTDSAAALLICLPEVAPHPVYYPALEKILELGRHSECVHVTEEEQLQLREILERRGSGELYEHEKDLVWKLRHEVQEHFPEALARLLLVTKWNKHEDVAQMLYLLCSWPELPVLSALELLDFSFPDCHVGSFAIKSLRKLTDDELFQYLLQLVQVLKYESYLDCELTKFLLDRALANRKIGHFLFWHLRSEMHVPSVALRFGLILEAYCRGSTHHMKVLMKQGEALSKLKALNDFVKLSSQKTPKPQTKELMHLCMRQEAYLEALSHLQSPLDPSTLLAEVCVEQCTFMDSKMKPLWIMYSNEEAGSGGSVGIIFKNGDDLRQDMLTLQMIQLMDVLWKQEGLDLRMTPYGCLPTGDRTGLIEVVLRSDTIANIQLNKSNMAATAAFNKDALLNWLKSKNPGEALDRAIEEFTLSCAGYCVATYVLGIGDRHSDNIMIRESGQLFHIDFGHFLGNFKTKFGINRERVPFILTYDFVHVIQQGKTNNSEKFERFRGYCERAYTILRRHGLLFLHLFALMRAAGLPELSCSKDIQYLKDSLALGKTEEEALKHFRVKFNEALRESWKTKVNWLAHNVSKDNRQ

The target of the assay is T1, PI3Kδ (Homo sapiens, UniProt O00329).
T1 construct: The protein is full length and co-expressed with untagged PIK3R1; GST; purchased Invitrogen PV5274
The assay can be described thus: PI3Kδ inhibition, modified PIK3CD Adapta TR-FRET assay. As to conditions: recombinant GST-tagged full length PIK3CD co-expressed with PIK3R1 (p85α); 2 μM ATP, 50 μM PIP2; read-out: PI3Kδ Inhibition (pIC50) (converted). Format: biochemical. As to the method:
The activity of compounds as PI3Kδ inhibitors may be determined by a variety of methods, including in vitro and in vivo methods. The following in vitro assay measures a test compound's ability to inhibit PI3Kδ-mediated phosphorylation of PIP2 and ATP.
Recombinant GST-tagged PIK3CD is purchased from Invitrogen (Part Number: PV5274). The protein is full length and co-expressed with untagged PIK3R1, phosphoinositide-3-kinase regulatory subunit 1 (p85α). The protein is stored at −20° C. in 50 mM TRIS (pH 7.5), 150 mM NaCl, 0.5 mM EDTA, 0.02% Triton® X-100, 2 mM DTT, and 50% glycerol.
A modified PIK3CD Adapta® assay (Invitrogen, Carlsbad, Calif.) is used to measure PI3Kδ inhibition of the example compounds. The assay has two phases. In the first phase, kinase reaction components, which include the enzyme (PIK3CD), substrates (PIP2, ATP), test compound (inhibitor), and assay buffer are added to each well, and the reaction is allowed to incubate for a pre-determined period of time. […] In the presence of the inhibitor, the amount of ADP formed by the kinase reaction is reduced, and the resulting intact antibody-tracer interaction maintains a high TR-FRET signal.
The reaction buffer contains 50 mM Hepes (pH 7.5), 3 mM MgCl2, 1 mM EGTA, 100 mM NaCl, 0.03% CHAPS; 2 mM DTT is added fresh prior to each experiment. […]
For orientation: In TR-FRET formats the signal depends on donor and acceptor labels being close together.

Take `N#Cc1cccc(CN2CC3COCCN3c3nc(-c4cccc5[nH]ccc45)ncc32)c1` (stereo not shown) [Example 59, 3-((2-(1H-indol-4-yl)-6a,7,9,10-tetrahydro-[1,4]oxazino[3,4-h]pteridin-5(6H)-yl)methyl)benzonitrile]: the IC50 was 63.1 nM.
